# For at least one entry, the source does not settle the construct or the ends of the probe.
# Test system: Vibhar transposase
# Assay: activity assay
# Settings: purified recombinant protein
sequence,measurement,setting,value
"CTGTCTCTTGATCACAAGT (double strand) [adapter 1 (parental, C:G at position 1)]",activity on this sequence,"tagmentation of E. coli DNA, 5 mM MnCl2, Bicine pH 7.5, 46 or 56 C, reference adapter",active
GCTGACGTCGAGACTTGTGATCAAGAGACAG / CTGTCTCTTGATCACAAGT [adapter pair 1 (3i1b/3i0)],activity on this sequence,"tagmentation of human DNA, products seen after SPRI purification",active
GCTGACGTCGAGACTTGTGATCAAGAGACAG / CTGTCTCTTGATCACAAGTT [adapter pair 4 (3i0*dT)],activity on this sequence,"3' inverted dT preceded by PS bond on bottom strand, comparable fragment yield to pair 1, with or without SPRI, variant of adapter pair 1 (3i1b/3i0)",active

# From patent US20190284613
